± gives the standard deviation. The entries are a selection whose mix differs from that of the whole data set. Many entries were measured with a wide error.
System: MIWI (PIWIL1) piRISC loaded with L1MC piRNA (30 nt)
Experiment: pre-steady-state target cleavage rate (min^-1); MIWI and MILI are mouse PIWI proteins and EfPiwi is from a freshwater sponge; tags in brackets are library labels; higher = faster piRNA-guided slicing of the target
Conditions: guide: L1MC piRNA 5'p-UAACUAAAUACUAUGCAAGCUGUAGGUCCU; auxiliary factor: none (no GTSF1)
Outline: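 In this Cleave-'n-Seq assay, uncleaved targets were sequenced and normalised to depth and to weakly complementary targets. They came from a transcribed, DNA-blocked target RNA library […] mixed with 1 nM active affinity-purified piRISC carrying one synthetic guide, with or without 500 nM GTSF1 partner protein, in HEPES–potassium acetate buffer at 33 °C for 0–8 or 0–960 min. After three trials were pooled and k3 was capped at 0.0001 min^-1, the pre-steady-state cleavage rate was obtained from a burst-and-steady-state fit.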
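Also: 1 nM active piRISC with 0.1 nM target library at 33 °C single turnover.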

Sequence	pre-steady-state target cleavage rate
AGGACCUACAGCUUGCAUACAUUUUAGAAA	0.000866 ± 0.0095
UCCACCUACAGCAAGCAUAGUAUUUAGUAA	0.00206 ± 0.0026
UCGACCUACAGCUUGCAAUGUAUUUUCAAA	0.000246 ± 0.012
AGGACCUACAGGAUGCAUAGUAUUUACAAA	0.00152 ± 0.0033
UCCACCUACAGCUUGCAUAGAUUUAGUUA	0.000373 ± 0.0073
UCCACCUUCAGCUUGCAUAGUAUUUACAAA	0.00236 ± 0.0024
UCCACCUACAGCUUGCAUUGUAUUUUCAAA	0.00117 ± 0.0058
UCGACCUACAGCUUGCUAUGUAUUUAGAAA	0.000546 ± 0.0086
UCCACCUACAGCUUCGAUAGUAUUUAGAAA	0.000312 ± 0.011
UGGACCUACAGCUUGCAUAUGUAUUUAGUUA	0.000759 ± 0.0078
UCCACCUAGUGCUUGCAUAGUAUUUACAAA	0.00181 ± 0.0019
UGGACCUACACGAUGCAUAGUAUUUACAAA	0.00099 ± 0.0056
UCCUGGAUGUCGAACGAUAGUAUUUACUUA	0.000157 ± 0.034
UCCUCCUACAGCUUGCAUUCAAUUUACAAA	0.000472 ± 0.01
UGCACCUACAGCUUCCAUAGUAUUUAGUUA	0.00148 ± 0.0049
UCCACCUACACGUUGCAUAGUAUUUUCAAA	0.00069 ± 0.0077
UCCACCUACAGCUUGCAUAGUAUAAUCAAA	0.00075 ± 0.009

As a short view, part of the list above:
Sequence	pre-steady-state target cleavage rate
AGGACCUACAGCUUGCAUACAUUUUAGAAA	0.000866 ± 0.0095
UCCACCUACAGCAAGCAUAGUAUUUAGUAA	0.00206 ± 0.0026
